PubChem BioAssay AID1259308 – NCATS | 2017
This is one part, drawn at random, of about 59,000 reagents tested. Of all reagents, about 1,510 (2.6%) are marked active. 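Calls use total luciferase alone and ignore viability, so some active siRNAs may act by altering cell number.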 The numbers tell different reagents against one gene apart.

- Assay: 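Candidate targets for better recombinant protein yield in mammalian cells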 (primary screen)
- Cells: human HEK293 embryonic kidney cells stably expressing firefly luciferase (HEK-CMV-Luc2-Hygro)
- Reagent: single siRNA against human genes, 0.8 pmol siRNA per well
- Time to read-out: 72 h
- Read-out: 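Luciferase light (ONE-Glo) measured on one replicate plate set and viability (CellTiter-Glo) on the other, scaled to a negative control siRNA, with robust z-scores and luciferase per cell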
- Scale: total luciferase, z-score and total luciferase, % of control: higher = more reporter protein produced; luciferase per cell, z-score: higher = more reporter output per viable cell; viable cells, % of control: higher = more viable cells
- Active means: 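Active when the median/MAD z-score for overall luciferase is greater than 3; a gene was taken forward for validation with new siRNAs if at least two of its three siRNAs passed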
- Meaning of the calls: active = raised luciferase; inactive = no rise

target gene	reagent no.	total luciferase, z-score	total luciferase, % of control	luciferase per cell, z-score	viable cells, % of control	outcome
FYB2 (FYN binding protein 2)	1	-0.181	78.3	-0.351	96	inactive
FYB2 (FYN binding protein 2)	2	-0.214	77.6	-0.207	91.6	inactive
FYB2 (FYN binding protein 2)	3	2.98	141	1.58	104	inactive
SSX2 (SSX family member 2)	1	0.0227	82.3	-0.0339	92.8	inactive
SSX2 (SSX family member 2)	2	1.45	111	1.59	81.4	inactive
SSX2 (SSX family member 2)	3	-0.0755	80.4	-0.481	102	inactive
USP44 (ubiquitin specific peptidase 44)	1	0.0682	83.2	-0.111	95.8	inactive
USP44 (ubiquitin specific peptidase 44)	2	0.0484	82.8	-0.388	103	inactive
USP44 (ubiquitin specific peptidase 44)	3	-0.0683	80.5	-0.556	104	inactive
TMEM132D (transmembrane protein 132D)	1	-0.114	79.6	0.457	78.9	inactive
TMEM132D (transmembrane protein 132D)	2	-0.478	72.4	-0.748	98.5	inactive
TMEM132D (transmembrane protein 132D)	3	0.697	95.8	0.132	103	inactive
NAPA (NSF attachment protein alpha)	1	0.455	90.9	3.26	43	inactive
NAPA (NSF attachment protein alpha)	2	0.53	92.4	1.2	75.4	inactive
NAPA (NSF attachment protein alpha)	3	-0.354	74.8	0.977	64.7	inactive
LHX2 (LIM homeobox 2)	1	-1.08	60.5	-1.32	95.5	inactive
LHX2 (LIM homeobox 2)	2	1.7	116	0.689	108	inactive
LHX2 (LIM homeobox 2)	3	-0.664	68.7	-0.695	92.2	inactive

Entries listed so far whose gene name starts with S or s:
target gene	reagent no.	total luciferase, z-score	total luciferase, % of control	luciferase per cell, z-score	viable cells, % of control	outcome
SSX2 (SSX family member 2)	1	0.0227	82.3	-0.0339	92.8	inactive
SSX2 (SSX family member 2)	2	1.45	111	1.59	81.4	inactive
SSX2 (SSX family member 2)	3	-0.0755	80.4	-0.481	102	inactive

More results follow.
target gene	reagent no.	total luciferase, z-score	total luciferase, % of control	luciferase per cell, z-score	viable cells, % of control	outcome
CXCL13 (C-X-C motif chemokine ligand 13)	1	0.438	90.6	0.137	97.6	inactive
CXCL13 (C-X-C motif chemokine ligand 13)	2	0.786	97.5	1.08	82	inactive
CXCL13 (C-X-C motif chemokine ligand 13)	3	1.61	114	1.89	77.4	inactive
TENT4B (terminal nucleotidyltransferase 4B)	1	-0.188	78.2	0.377	79.1	inactive
TENT4B (terminal nucleotidyltransferase 4B)	2	-1.4	54	-1.24	83.7	inactive
TENT4B (terminal nucleotidyltransferase 4B)	3	-0.882	64.3	-0.672	85.8	inactive
TMEM59L (transmembrane protein 59 like)	1	0.17	85.3	-0.27	102	inactive
TMEM59L (transmembrane protein 59 like)	2	-1.2	58	-0.475	73.4	inactive
TMEM59L (transmembrane protein 59 like)	3	0.928	100	0.723	92.7	inactive
EIF4E1B (eukaryotic translation initiation factor 4E family member 1B)	1	-0.426	73.4	1.19	59.9	inactive
EIF4E1B (eukaryotic translation initiation factor 4E family member 1B)	2	0.63	94.4	0.672	88.4	inactive
EIF4E1B (eukaryotic translation initiation factor 4E family member 1B)	3	0.76	97	1.16	79.8	inactive
KSR2 (kinase suppressor of ras 2)	1	0.991	102	0.964	88.1	inactive
KSR2 (kinase suppressor of ras 2)	2	-0.585	70.3	-1.03	103	inactive
KSR2 (kinase suppressor of ras 2)	3	3.12	144	1.55	107	active
SGSH (N-sulfoglucosamine sulfohydrolase)	1	-0.282	76.3	-0.534	98.1	inactive
SGSH (N-sulfoglucosamine sulfohydrolase)	2	1.41	110	1.06	93.1	inactive
SGSH (N-sulfoglucosamine sulfohydrolase)	3	-0.545	71.1	-0.875	100	inactive
CCDC144BP (coiled-coil domain containing 144B, pseudogene)	1	0.856	98.9	0.936	86.4	inactive
CCDC144BP (coiled-coil domain containing 144B, pseudogene)	2	-1.51	51.9	-1.25	80.5	inactive
CCDC144BP (coiled-coil domain containing 144B, pseudogene)	3	-0.323	75.5	-0.783	104	inactive
